Test results taken from PubChem BioAssay AID328 (DTP/NCI, 2004).
The list is a part of this screen's results and no random one: it gathers tests that were run many times, whatever their T/C, doses with no T/C, and many T/C values between a quarter and a half above the control. Further doses and runs are listed elsewhere. T/C is the treated group as % of the vehicle group. Some doses have a count of surviving animals in place of a T/C: the source holds a T/C of zero for them, seemingly a mark for toxic or unscored doses. Some survivor counts are full or nearly so, which does not show that the dose was tolerated: the source hardly ever lists a survival T/C far under the control, and the zero likely stands for such cases as well. Counts of survivors are from the toxicity check (mostly the fifth day) where no day follows; animals may have died later. Schedule codes are those of the source, taken here to give the interval after Q, in days (D) or hours (H), and the number of doses after X. Where survival is the endpoint, this PubChem deposit counts one and a half times the control or more as active, and values a quarter to a half above the control carry no call in these data; other NCI protocols may use other cut-offs. Some entries hold several experiments; their values stand side by side, smallest first. Some T/C values carry the count of animals alive at the toxicity check (mostly the fifth day); without a count, all were alive then.

Tested on: BDF1 mice, P388 leukemia ip, median survival T/C
Assay: NCI In Vivo Anticancer Drug Screen. Data for tumor model P388 Leukemia (intraperitoneal) in B6D2F1 (BDF1) mice
Settings: T/C endpoint: median survival time, higher T/C = longer survival
Procedure, shortened: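 Antitumour effect was judged in vivo: survival in drug-treated mice, normalised to that of vehicle-dosed controls, gives the reported T/C.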

[1] = dose: 200.0 mg/kg/injection, schedule: Q01DX009 (ip), vehicle: saline with Tween-80
[2] = dose: 400.0 mg/kg/injection, schedule: Q01DX009 (ip), vehicle: saline with Tween-80

SMILES: NC(=O)c1cn(C2OC(CO)C(O)C2O)c2ncnc(N)c12 (stereo not drawn)
- T/C (dose: 0.09 mg/kg/injection, schedule: Q01DX009 (ip), vehicle: saline with Tween-80): 133 % of control
- T/C (dose: 1.3 mg/kg/injection, schedule: Q04DX003 (ip), vehicle: saline with Tween-80): 127 % of control
- survivor count (dose: 3.0 mg/kg/injection, schedule: Q01DX009 (ip), vehicle: saline with Tween-80): 6 of 6
- T/C (dose: 3.0 mg/kg/injection, schedule: Q04DX003 (ip), vehicle: saline with Tween-80): 127 % of control
- T/C (dose: 4.5 mg/kg/injection, schedule: Q04DX003 (ip), vehicle: saline with Tween-80): 127 % of control
- survivor count (dose: 6.0 mg/kg/injection, schedule: Q01DX009 (ip), vehicle: saline with Tween-80): 5 of 6
- survivor count (dose: 12.0 mg/kg/injection, schedule: Q01DX009 (ip), vehicle: saline with Tween-80): 1 of 6
- survivor count (dose: 12.0 mg/kg/injection, schedule: Q04DX003 (ip), vehicle: saline with Tween-80): 5 of 6
- survivor count (dose: 12.0 mg/kg/injection, schedule: Q04DX003 (ip), vehicle: saline): 6 of 6

SMILES: CS(=O)(=O)NN
- survivor count (dose: 75.0 mg/kg/injection, schedule: Q01DX009 (ip), vehicle: saline): 0 of 6
- survivor count (dose: 115.0 mg/kg/injection, schedule: Q01DX009 (ip), vehicle: saline): 0 of 6
- survivor count (dose: 150.0 mg/kg/injection, schedule: Q04DX003 (ip), vehicle: saline): 0 of 6
- survivor count (dose: 170.0 mg/kg/injection, schedule: Q01DX009 (ip), vehicle: saline): 0 of 6

SMILES: CCN(CC)CCNc1ccc(C)c2sc3ccc(O)cc3c(=O)c12
- survivor count [1]: 4 of 6

SMILES: CCN(CC)C(C)CN1c2ccccc2Sc2ccccc21 (stereo not drawn)
- survivor count (dose: 200.0 mg/kg/injection, schedule: Q01DX009 (ip), vehicle: saline): 2 of 6

SMILES: CC(=O)c1ccc2ccccc2c1O
- T/C (dose: 265.0 mg/kg/injection, schedule: Q01DX009 (ip), vehicle: saline with Tween-80): 127 % of control
- T/C [2]: 137 % of control

SMILES: C=CC=O
- survivor count (dose: 3.13 mg/kg/injection, schedule: Q01DX009 (ip), vehicle: saline): 3 of 6
- survivor count (dose: 12.5 mg/kg/injection, schedule: Q01DX009 (ip), vehicle: saline): 0 of 6
- survivor count (dose: 25.0 mg/kg/injection, schedule: Q04DX003 (ip), vehicle: saline): 6 of 6

SMILES: Cc1c[n+]([O-])ccc1[N+](=O)[O-]
- survivor count (dose: 100.0 mg/kg/injection, schedule: Q01DX009 (ip), vehicle: saline): 3 of 6
- survivor count (dose: 400.0 mg/kg/injection, schedule: Q04DX003 (ip), vehicle: saline): 0 of 6

SMILES: CC(CS(=O)(=O)O)N1CCOCC1 (stereo not drawn)
- survivor count (dose: 400.0 mg/kg/injection, schedule: Q01DX009 (ip), vehicle: saline): 6 of 6

SMILES: O=[N+]([O-])c1cc[n+]([O-])c(Br)c1
- survivor count (dose: 6.25 mg/kg/injection, schedule: Q01DX009 (ip), vehicle: saline with Tween-80): 4 of 6
- survivor count (dose: 12.5 mg/kg/injection, schedule: Q01DX009 (ip), vehicle: saline with Tween-80): 6 of 6
- survivor count (dose: 25.0 mg/kg/injection, schedule: Q01DX009 (ip), vehicle: saline with Tween-80): 5 of 6
- survivor count (dose: 100.0 mg/kg/injection, schedule: Q01DX009 (ip), vehicle: saline with Tween-80): 6 of 6
- survivor count [2]: 6 of 6
- survivor count (dose: 400.0 mg/kg/injection, schedule: Q04DX003 (ip), vehicle: saline with Tween-80): 4 of 6

SMILES: O=C(Oc1cc(Cl)ccc1Cl)c1ccccc1
- survivor count [1]: 6 of 6

SMILES: Nc1cc(/C=C/c2ccc([N+](=O)[O-])cc2)nc2ccccc12
- T/C (dose: 100.0 mg/kg/injection, schedule: Q04DX002 (ip), vehicle: saline with Tween-80): 130 and 144 % of control
- survivor count (dose: 200.0 mg/kg/injection, schedule: Q04DX002 (ip), vehicle: saline with Tween-80): 3 of 6
- survivor count (dose: 400.0 mg/kg/injection, schedule: Q04DX002 (ip), vehicle: saline with Tween-80): 0 of 6

SMILES: CCCCCCCCCCCCCCCCn1/c(=N/N=C/c2ccccc2S(=O)(=O)O)sc2ccccc21
- survivor count (dose: 100.0 mg/kg/injection, schedule: Q01DX009 (ip), vehicle: Klucel (hydroxypropylcellulose) (HPC)): 5 of 6

SMILES: Cc1ccc(S(=O)(=O)[O][Pb]([CH3])([CH3])[CH3])cc1
- survivor count (dose: 3.0 mg/kg/injection, schedule: Q01DX009 (ip), vehicle: saline): 6 of 6
- survivor count (dose: 6.0 mg/kg/injection, schedule: Q01DX009 (ip), vehicle: saline): 6 of 6
- survivor count (dose: 12.0 mg/kg/injection, schedule: Q01DX009 (ip), vehicle: saline): 3 of 6

SMILES: FC(F)(F)c1nc2nc(Br)c(Br)nc2[nH]1
- survivor count (dose: 200.0 mg/kg/injection, schedule: Q04DX003 (ip), vehicle: saline with Tween-80): 6 of 6
- survivor count [2]: 4 of 6

SMILES: COc1cc2c3cc1Oc1c(OC)c(OC)cc4c1C(Cc1ccc(OC(C)=O)c(c1)Oc1ccc(cc1)CC3N(C)CC2)N(C)CC4 (stereo not drawn)
- survivor count (dose: 100.0 mg/kg/injection, schedule: Q04DX003 (ip), vehicle: saline with Tween-80): 6 of 6

SMILES: COc1ccc2[nH]c3c(C)c4ccncc4c(C)c3c2c1
- survivor count (dose: 0.12 mg/kg/injection, schedule: Q01DX009 (ip), vehicle: water): 0 of 10
- survivor count (dose: 0.25 mg/kg/injection, schedule: Q01DX009 (ip), vehicle: water): 0 of 10
- survivor count (dose: 0.5 mg/kg/injection, schedule: Q01DX009 (ip), vehicle: water): 0 of 10
- survivor count (dose: 1.0 mg/kg/injection, schedule: Q01DX009 (ip), vehicle: water): 0 of 10
- survivor count (dose: 2.0 mg/kg/injection, schedule: Q01DX009 (ip), vehicle: water): 0 of 10
- survivor count (dose: 2.34 mg/kg/injection, schedule: Q01DX009 (ip), vehicle: water): 8 of 10
- T/C (dose: 9.37 mg/kg/injection, schedule: Q01DX009 (ip), vehicle: other): 133 % of control
- T/C (dose: 18.5 mg/kg/injection, schedule: Q04DX003 (ip), vehicle: other): 141 % of control
- survivor count (dose: 37.5 mg/kg/injection, schedule: Q01DX009 (ip), vehicle: other): 10 of 10
- survivor count (dose: 37.5 mg/kg/injection, schedule: Q04DX003 (ip), vehicle: water): 10 of 10
- T/C (dose: 75.0 mg/kg/injection, schedule: Q01DX001 (ip), vehicle: other): 133 % of control [9 of 10 alive]
- survivor count (dose: 75.0 mg/kg/injection, schedule: Q01DX009 (ip), vehicle: other): 9 of 10
- survivor count (dose: 75.0 mg/kg/injection, schedule: Q04DX003 (ip), vehicle: water): 10 of 10
- survivor count (dose: 150.0 mg/kg/injection, schedule: Q01DX001 (ip), vehicle: other): 6 of 10
- survivor count (dose: 150.0 mg/kg/injection, schedule: Q01DX001 (ip), vehicle: water): 2 of 10

SMILES: CC(=O)C(C(C)=O)C(C(C)=O)C(C)=O.[Cu]
- survivor count (dose: 50.0 mg/kg/injection, schedule: Q01DX005 (ip), vehicle: saline with Tween-80): 1 of 5
- survivor count (dose: 100.0 mg/kg/injection, schedule: Q01DX005 (ip), vehicle: saline with Tween-80): 0 of 5
- survivor count (dose: 200.0 mg/kg/injection, schedule: Q01DX005 (ip), vehicle: saline with Tween-80): 0 of 5
